Experimental data published in publication PMC11667235.
Results are given in words; binding and its absence hold for the method and conditions named. Binding seen in cells or lysates may run through a third protein. Some results given as binding are weak or reduced against the parent protein; the word gives no strength.

The chains behind the UniProt entries cited, without tags or fusion partners.
UniProt P19338: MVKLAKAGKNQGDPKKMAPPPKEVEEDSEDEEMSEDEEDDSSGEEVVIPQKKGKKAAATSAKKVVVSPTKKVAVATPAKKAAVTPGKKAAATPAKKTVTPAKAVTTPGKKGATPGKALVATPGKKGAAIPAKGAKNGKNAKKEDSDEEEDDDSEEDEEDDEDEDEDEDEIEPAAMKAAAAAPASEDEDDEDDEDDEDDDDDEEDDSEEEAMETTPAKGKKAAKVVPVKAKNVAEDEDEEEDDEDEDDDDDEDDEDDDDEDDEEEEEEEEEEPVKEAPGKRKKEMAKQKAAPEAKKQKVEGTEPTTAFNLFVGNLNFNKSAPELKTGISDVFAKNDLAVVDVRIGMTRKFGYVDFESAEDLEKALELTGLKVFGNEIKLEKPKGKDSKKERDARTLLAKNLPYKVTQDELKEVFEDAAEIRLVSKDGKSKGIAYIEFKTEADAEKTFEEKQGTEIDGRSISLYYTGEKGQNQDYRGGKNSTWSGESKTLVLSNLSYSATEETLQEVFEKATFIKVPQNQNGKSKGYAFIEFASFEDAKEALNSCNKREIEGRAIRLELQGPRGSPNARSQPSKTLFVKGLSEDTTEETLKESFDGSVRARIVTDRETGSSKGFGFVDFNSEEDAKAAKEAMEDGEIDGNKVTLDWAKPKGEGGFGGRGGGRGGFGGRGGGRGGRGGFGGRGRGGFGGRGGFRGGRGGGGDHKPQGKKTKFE
UniProt Q00987: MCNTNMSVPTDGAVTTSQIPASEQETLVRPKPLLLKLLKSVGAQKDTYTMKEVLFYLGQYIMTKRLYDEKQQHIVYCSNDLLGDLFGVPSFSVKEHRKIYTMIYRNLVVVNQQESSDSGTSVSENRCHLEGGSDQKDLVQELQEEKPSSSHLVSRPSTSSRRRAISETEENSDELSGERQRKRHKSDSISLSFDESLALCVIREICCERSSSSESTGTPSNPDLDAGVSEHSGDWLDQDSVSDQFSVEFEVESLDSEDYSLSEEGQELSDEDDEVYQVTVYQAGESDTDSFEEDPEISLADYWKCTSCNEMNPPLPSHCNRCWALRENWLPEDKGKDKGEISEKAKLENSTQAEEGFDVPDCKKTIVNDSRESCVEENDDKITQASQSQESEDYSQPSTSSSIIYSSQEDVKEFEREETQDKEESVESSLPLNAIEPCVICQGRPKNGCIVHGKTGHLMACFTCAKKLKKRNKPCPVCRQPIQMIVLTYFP

Assays:
[1] = biological target: nucleolin (NCL) (human (endogenous in MNNG/HOS)) (UniProt P19338); assay: pull-down; MNNG/HOS cells treated with 500 nM biotin-labeled AS1411 (ligand of NCL) or CRO for 6 h, lysed, streptavidin-coated magnetic beads, western blot; also siNC- or siNCL-transfected cells
[2] = biological target: nucleolin (NCL) (human (endogenous in MNNG/HOS)) (UniProt P19338); assay: pull-down; MNNG/HOS cells treated with 500 nM biotin-labeled AS1411-SL1-2 or CRO for 6 h, lysed, streptavidin-coated magnetic beads, western blot; also siNC- or siNCL-transfected cells
[3] = biological target: nucleolin (NCL) (human (endogenous in MNNG/HOS)) (UniProt P19338); assay: pull-down + ELISA; biotin pull-down with AS1411-SL1-2 at several concentrations; eluted proteins quantified by sandwich ELISA kits for MDM2, NCL and c-MET
[4] = biological target: nucleolin (NCL) (human (endogenous in MNNG/HOS)) (UniProt P19338); assay: co-IP; whole-cell extracts of MNNG/HOS cells treated with 500 nM AS1411-SL1-2 (or AS1411) for 2 h; anti-NCL or anti-MDM2 antibody, Protein A/G magnetic beads, western blot; also siNCL- or siMDM2-transfected cells
[5] = biological target: nucleolin (NCL) (human (endogenous in MNNG/HOS)) (UniProt P19338); assay: co-IP; whole-cell extracts of MNNG/HOS cells without aptamer treatment; anti-NCL antibody or IgG, Protein A/G magnetic beads, western blot
[6] = biological target: nucleolin (NCL) (human (endogenous in MNNG/HOS)) (UniProt P19338); assay: pull-down + ELISA; biotin pull-down with AS1411 alone (ligand of NCL) or SL1 alone (ligand of c-MET); eluted proteins quantified by sandwich ELISA kits for MDM2, NCL and c-MET

Measured: binding

mouse double minute 2 homolog (MDM2) (from UniProt Q00987 1-491) (enzyme)
binds: all assays above
